Laboratory results published in patent US20260265392A1.
These are yes or no findings as the source states them, for the method shown. Some entries that bind do so weakly or less than the wild type.

Molecular target: recombinant protein (SUM)5-TRAIL
Experiment: laser confocal imaging of SJSA-1 cells with (SIM)6-R4L (Red) and (SUM)5-TRAIL (Green), 100 nM each (combination 3, FIG. 2C); co-localization

binding: binds
B1: recombinant protein (SIM)6-R4L (ligand)
chain: MKHHHHHHHENLYFQGAMSSKVDVIDLTIESSSDEEEDPPAKRGGSGGSGGSGGSKVDVIDLTIESSSDEEEDPPAKRGGSGGSGGSGGSKVDVIDLTIESSSDEEEDPPAKRGAMKGGSGGSGGSGGSMSSKVDVIDLTIESSSDEEEDPPAKRGGSVGSGGSGGSKVDVIDLTIESSSDEEEDPPAKRGGSGGSGGRGGSKVDVIDLTIESSSDEEEDPPAKRGAMRCWGGSGGSGGSGGSMGMCYRKCRGGRRWCYQKCGGSGGSGGSGGS
modifications: Alexa594 label in the imaging experiment (site not stated)
